From article doi:10.1101/495820 come the findings set out here.

Test [1] deals with DnaN (N114C, V313C)-HaloTag (B. subtilis) (UniProt P05649). As to the kind of experiment: cross-linking.
Test [2] concerns the target Smc(D280C)-HaloTag with the pair of cysteines at the Smc hinge (B. subtilis) (UniProt P51834). The experiment in a line: cross-linking.

These are yes or no findings as the source states them, for the method shown. Binding seen in cells or lysates may run through a third protein. Some results given as binding are weak or reduced against the parent protein; the word gives no strength. Tags and fused reporters may be left off the sequences shown.

B1: DnaN (N114C, V313C)-HaloTag (protein, UniProt P05649 1-378)
chain: MKFTIQKDRLVESVQDVLKAVSSRTTIPILTGIKIVASDDGVSFTGSDSDISIESFIPKEEGDKEIVTIEQPGSIVLQARFFSEIVKKLPMATVEIEVQNQYLTIIRSGKAEFCLNGLDADEYPHLPQIEEHHAIQIPTDLLKNLIRQTVFAVSTSETRPILTGVNWKVEQSELLCTATDSHRLALRKAKLDIPEDRSYNVVIPGKSLTELSKILDDNQELVDIVITETQVLFKAKNVLFFSRLLDGNYPDTTSLIPQDSKTEIIVNTKEFLQAIDRASLLAREGRNNVVKLSAKPAESIEISSNSPEIGKVCEAIVADQIEGEELNISFSPKYMLDALKVLEGAEIRVSFTGAMRPFLIRTPNDETIVQLILPVRTY
For B1, the binding entry in test [1] is “binds”.

B2: Smc(D280C)-HaloTag with the pair of cysteines at the Smc hinge (protein, UniProt P51834 1-1186)
chain: MFLKRLDVIGFKSFAERISVDFVKGVTAVVGPNGSGKSNITDAIRWVLGEQSARSLRGGKMEDIIFAGSDSRKRLNLAEVTLTLDNDDHFLPIDFHEVSVTRRVYRSGESEFLINNQPCRLKDIIDLFMDSGLGKEAFSIISQGKVEEILSSKAEDRRSIFEEAAGVLKYKTRKKKAENKLFETQDNLNRVEDILHELEGQVEPLKIQASIAKDYLEKKKELEHVEIALTAYDIEELHGKWSTLKEKVQMAKEEELAESSAISAKEAKIEDTRDKIQALCESVDELQQVLLVTSEELEKLEGRKEVLKERKKNAVQNQEQLEEAIVQFQQKETVLKEELSKQEAVFETLQAEVKQLRAQVKEKQQALSLHNENVEEKIEQLKSDYFELLNSQASIRNELQLLDDQMSQSAVTLQRLADNNEKHLQERHDISARKAACETEFARIEQEIHSQVGAYRDMQTKYEQKKRQYEKNESALYQAYQYVQQARSKKDMLETMQGDFSGFYQGVKEVLKAKERLGGIRGAVLELISTEQKYETAIEIALGASAQHVVTDDEQSACKAIQYLKQNSFGRATFLPLSVIRDRQLQSRDAETAARHSSFLGVASELVTFDPAYRSVIQNLLGTVLITEDLKGACELAKLLGHRYRIVTLEGDVVNPGGSMTGGAVKKKNNSLLGRSRELEDVTKRLAEMEEKTALLEQEVKTLKHSIQDMEKKLADLRETGEGLRLKQQDVKGQLYELQVAEKNINTHLELYDQEKSALSESDEERKVRKRKLEEELSAVSEKMKQLEEDIDRLTKQKQTQSSTKESLSNELTELKIAAAKKEQACKGEEDNLARLKKELTETELALKEAKEDLSFLTSEMSSSTSGEEKLEEAAKHKLNDKTKTIELIALRRDQRIKLQHGLDTYERELKEMKRLYKQKTTLLKDEEVKLGRMEVELDNLLQYLREEYSLSFEGAKEKYQLETDPEEARKRVKLIKLAIEELGTVNLGSIDEFERVNERYKFLSEQKEDLTEAKNTLFQVIEEMDEEMTKRFNDTFVQIRSHFDQVFRSLFGGGRAELRLTDPNDLLHSGVEIIAQPPGKKLQNLNLLSGGERALTAIALLFSILKVRPVPFCVLDEVEAALDEANVFRFAQYLKKYSSDTQFIVITHRKGTMEEADVLYGVTMQESGVSKVISVKLEETKEFVQ
As to B2, in test [2], the binding entry is “binds”.
